Measured values published in patent US20090142768A1.
No constants are given. Whether binding was seen depends on the method and setting. Some binding calls cover weakened binding; strength is not graded here. Tags and fused reporters may be left off the sequences shown.

Biological target: Perforin-2/GFP fusion protein expressed in transfected 293 cells (mouse) (UniProt A1L314)
Test: negative-stain electron microscopy of trypsin-treated membranes from P2-gfp 293 cells (self-association)

B1: Perforin-2/GFP fusion protein expressed in transfected 293 cells (protein, mouse, UniProt A1L314 20-713, looked up, not shown: large carriers)
chain: DKPLGETGTTGFQICKNALKLPVLEVLPGGGWDNLRNVDMGRVMDLTYTNCKTTEDGQYIIPDEVYTIPQKESNLEMNSEVLESWMNYQSTTSLSINTELALFSRVNGKFSTEFQRMKTLQVKDQAVTTRVQVRNRIYTVKTTPTSELSLGFTKALMDICDQLEKNQTKMATYLAELLILNYGTHVITSVDAGAALVQEDHVRSSFLLDNQNSQNTVTASAGIAFLNIVNFKVETDYISQTSLTKDYLSNRTNSRVQSFGGVPFYPGITLETWQKGITNHLVAIDRAGLPLHFFIKPDKLPGLPGPLVKKLSKTVETAVRHYYTFNTHPGCTNVDSPNFNFQANMDDDSCDAKVTNFTFGGVYQECTELSGDVLCQNLEQKNLLTGDFSCPPGYSPVHLLSQTHEEGYSRLECKKKCTLKIFCKTVCEDVFRVAKAEFRAYWCVAAGQVPDNSGLLFGGVFTDKTINPMTNAQSCPAGYIPLNLFESLKVCVSLDYELGFKFSVPFGGFFSCIMGNPLVNSDTAKDVRAPSLKKCPGGFSQHLAVISDGCQVSYCVKAGIFTGGSLLPVRLPPYTKPPLMSQVATNTVIVTNSETARSWIKDPQTNQWKLGEPLELRRAMTVIHGDSNGMSGGEAAGITLGVTIALGIVITLAIYGTRKYKKKEYQEIEEQESLVGSLATDATVLNGEEDPSPA
B1 was tested, and the binding was “binds”.
